The supplement of paper PMC5836539
± gives the standard deviation of the averaged measurements. Repeats in this data set agree poorly, so a single value says little.

Amino acid sequences for entries named in this document (tags omitted). A change or cut given only in a name is not applied to a line headed by its entry.
UniProt Q96Q42: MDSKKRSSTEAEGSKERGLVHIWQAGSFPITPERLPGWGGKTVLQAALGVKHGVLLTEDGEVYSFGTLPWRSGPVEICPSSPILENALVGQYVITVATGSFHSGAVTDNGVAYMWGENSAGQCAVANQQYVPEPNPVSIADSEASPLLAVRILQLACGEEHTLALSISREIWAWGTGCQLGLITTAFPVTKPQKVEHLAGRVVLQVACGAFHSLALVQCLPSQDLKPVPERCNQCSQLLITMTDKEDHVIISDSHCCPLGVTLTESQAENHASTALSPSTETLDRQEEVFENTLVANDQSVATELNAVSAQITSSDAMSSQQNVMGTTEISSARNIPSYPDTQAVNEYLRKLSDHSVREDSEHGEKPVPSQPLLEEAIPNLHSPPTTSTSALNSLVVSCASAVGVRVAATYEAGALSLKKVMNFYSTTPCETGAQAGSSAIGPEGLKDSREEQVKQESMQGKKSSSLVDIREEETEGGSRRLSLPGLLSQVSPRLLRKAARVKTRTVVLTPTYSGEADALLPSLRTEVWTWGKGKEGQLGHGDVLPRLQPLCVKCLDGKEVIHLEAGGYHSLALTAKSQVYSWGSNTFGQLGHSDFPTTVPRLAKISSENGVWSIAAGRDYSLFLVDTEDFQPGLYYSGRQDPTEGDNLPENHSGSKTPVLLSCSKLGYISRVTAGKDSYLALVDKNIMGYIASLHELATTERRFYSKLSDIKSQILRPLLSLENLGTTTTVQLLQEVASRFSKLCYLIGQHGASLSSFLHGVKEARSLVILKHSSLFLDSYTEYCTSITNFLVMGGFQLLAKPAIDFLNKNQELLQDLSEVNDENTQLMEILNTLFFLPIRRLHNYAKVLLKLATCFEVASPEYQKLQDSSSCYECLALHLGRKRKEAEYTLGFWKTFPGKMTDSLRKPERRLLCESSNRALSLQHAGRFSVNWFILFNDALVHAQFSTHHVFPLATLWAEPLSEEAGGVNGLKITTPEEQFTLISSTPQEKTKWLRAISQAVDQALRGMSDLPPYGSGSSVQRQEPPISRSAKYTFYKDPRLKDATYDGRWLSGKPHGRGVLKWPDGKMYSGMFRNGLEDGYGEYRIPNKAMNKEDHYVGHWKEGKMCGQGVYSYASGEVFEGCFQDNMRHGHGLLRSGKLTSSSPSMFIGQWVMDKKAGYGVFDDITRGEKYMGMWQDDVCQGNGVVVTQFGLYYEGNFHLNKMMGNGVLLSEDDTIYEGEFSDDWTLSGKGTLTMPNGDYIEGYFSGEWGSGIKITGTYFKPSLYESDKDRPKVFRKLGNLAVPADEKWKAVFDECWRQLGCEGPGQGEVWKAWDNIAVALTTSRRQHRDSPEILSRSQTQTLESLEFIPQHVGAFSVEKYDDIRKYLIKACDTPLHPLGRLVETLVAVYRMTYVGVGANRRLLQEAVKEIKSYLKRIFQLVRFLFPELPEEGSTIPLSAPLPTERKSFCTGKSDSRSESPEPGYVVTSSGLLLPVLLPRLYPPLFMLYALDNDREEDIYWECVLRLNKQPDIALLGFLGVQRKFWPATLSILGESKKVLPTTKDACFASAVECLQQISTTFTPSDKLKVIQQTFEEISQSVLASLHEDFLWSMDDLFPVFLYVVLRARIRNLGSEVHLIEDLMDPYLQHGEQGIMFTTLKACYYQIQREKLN
UniProt Q9Y6D5: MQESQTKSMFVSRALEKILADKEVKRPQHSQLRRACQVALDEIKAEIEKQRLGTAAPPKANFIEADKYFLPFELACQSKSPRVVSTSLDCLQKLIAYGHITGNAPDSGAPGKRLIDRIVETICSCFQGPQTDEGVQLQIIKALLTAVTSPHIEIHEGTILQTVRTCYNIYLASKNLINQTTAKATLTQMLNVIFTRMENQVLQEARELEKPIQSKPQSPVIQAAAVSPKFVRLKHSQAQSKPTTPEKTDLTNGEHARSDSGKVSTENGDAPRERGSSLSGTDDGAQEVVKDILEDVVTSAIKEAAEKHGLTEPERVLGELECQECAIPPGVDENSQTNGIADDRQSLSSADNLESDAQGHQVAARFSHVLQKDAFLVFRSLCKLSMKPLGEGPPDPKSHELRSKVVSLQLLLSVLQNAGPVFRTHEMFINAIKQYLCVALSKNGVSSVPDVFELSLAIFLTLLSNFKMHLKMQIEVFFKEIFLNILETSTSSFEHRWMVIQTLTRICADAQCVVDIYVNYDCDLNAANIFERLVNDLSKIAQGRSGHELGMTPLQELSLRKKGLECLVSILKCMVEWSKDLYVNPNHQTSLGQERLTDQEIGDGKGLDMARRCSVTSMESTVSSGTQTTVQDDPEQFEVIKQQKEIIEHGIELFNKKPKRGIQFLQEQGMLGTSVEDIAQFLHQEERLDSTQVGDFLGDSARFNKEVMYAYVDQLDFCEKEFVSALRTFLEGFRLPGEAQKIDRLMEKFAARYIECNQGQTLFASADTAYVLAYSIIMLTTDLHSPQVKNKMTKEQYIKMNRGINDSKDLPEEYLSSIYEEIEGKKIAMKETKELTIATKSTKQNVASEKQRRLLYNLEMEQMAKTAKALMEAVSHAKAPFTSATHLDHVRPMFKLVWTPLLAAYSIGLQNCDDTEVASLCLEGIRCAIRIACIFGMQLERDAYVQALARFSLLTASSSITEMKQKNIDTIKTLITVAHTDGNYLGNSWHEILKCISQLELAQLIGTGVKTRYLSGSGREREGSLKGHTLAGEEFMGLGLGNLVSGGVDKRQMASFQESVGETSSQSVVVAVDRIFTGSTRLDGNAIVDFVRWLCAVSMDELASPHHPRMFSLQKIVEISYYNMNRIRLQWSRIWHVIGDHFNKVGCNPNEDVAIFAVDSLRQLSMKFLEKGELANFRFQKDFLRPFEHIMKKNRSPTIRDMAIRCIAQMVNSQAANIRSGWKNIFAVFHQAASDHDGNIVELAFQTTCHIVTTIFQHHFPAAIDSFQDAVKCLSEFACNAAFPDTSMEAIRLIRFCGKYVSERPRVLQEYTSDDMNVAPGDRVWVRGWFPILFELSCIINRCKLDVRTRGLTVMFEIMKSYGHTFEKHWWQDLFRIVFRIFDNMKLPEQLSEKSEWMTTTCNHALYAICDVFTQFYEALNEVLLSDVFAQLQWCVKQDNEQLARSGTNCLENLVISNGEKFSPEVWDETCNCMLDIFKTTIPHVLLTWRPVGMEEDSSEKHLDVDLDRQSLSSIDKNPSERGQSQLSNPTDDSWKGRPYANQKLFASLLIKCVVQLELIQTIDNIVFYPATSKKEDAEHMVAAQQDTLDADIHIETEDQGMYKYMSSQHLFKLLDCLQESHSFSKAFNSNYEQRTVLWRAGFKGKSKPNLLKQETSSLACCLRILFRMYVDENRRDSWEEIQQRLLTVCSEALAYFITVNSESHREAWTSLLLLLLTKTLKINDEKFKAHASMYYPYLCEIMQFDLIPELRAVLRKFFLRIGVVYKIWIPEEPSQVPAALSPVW
UniProt O15085: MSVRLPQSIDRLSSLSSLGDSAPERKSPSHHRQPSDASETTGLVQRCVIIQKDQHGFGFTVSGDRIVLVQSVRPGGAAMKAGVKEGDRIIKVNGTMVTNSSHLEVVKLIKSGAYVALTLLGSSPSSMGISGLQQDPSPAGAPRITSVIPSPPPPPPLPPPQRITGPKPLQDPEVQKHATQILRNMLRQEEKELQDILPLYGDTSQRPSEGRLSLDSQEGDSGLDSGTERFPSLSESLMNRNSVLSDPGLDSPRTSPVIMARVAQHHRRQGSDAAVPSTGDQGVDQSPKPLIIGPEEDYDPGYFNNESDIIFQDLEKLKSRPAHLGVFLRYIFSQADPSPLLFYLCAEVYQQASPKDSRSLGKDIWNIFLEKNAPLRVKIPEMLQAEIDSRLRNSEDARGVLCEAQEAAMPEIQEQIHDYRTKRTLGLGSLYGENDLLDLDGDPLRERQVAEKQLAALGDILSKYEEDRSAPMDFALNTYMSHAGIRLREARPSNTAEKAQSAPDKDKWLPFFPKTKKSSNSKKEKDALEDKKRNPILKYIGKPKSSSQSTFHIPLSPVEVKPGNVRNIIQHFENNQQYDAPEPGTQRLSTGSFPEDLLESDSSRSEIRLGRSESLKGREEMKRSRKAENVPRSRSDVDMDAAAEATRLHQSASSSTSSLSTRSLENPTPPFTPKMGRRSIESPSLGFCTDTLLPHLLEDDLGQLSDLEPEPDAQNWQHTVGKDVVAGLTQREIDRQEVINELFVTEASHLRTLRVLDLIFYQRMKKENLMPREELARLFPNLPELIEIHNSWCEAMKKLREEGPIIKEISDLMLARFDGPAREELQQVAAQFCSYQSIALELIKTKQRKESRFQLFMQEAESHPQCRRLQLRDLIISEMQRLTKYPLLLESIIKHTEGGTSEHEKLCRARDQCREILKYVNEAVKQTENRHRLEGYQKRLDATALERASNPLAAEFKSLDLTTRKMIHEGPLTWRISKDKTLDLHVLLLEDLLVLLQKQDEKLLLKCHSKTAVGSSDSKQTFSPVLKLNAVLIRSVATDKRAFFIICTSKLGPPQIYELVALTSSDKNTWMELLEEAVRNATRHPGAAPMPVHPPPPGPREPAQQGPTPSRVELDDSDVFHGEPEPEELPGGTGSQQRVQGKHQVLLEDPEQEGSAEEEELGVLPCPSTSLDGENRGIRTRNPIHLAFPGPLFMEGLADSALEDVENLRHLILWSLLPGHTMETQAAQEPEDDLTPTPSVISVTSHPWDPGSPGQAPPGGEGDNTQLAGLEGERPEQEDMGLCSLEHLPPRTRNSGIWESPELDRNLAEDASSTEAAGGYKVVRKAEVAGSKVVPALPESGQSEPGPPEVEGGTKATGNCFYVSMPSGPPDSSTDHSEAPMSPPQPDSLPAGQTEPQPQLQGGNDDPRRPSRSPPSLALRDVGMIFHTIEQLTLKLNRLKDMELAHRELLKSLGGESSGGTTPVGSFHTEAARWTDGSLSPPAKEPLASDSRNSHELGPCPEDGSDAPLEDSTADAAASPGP
UniProt Q9ULH1: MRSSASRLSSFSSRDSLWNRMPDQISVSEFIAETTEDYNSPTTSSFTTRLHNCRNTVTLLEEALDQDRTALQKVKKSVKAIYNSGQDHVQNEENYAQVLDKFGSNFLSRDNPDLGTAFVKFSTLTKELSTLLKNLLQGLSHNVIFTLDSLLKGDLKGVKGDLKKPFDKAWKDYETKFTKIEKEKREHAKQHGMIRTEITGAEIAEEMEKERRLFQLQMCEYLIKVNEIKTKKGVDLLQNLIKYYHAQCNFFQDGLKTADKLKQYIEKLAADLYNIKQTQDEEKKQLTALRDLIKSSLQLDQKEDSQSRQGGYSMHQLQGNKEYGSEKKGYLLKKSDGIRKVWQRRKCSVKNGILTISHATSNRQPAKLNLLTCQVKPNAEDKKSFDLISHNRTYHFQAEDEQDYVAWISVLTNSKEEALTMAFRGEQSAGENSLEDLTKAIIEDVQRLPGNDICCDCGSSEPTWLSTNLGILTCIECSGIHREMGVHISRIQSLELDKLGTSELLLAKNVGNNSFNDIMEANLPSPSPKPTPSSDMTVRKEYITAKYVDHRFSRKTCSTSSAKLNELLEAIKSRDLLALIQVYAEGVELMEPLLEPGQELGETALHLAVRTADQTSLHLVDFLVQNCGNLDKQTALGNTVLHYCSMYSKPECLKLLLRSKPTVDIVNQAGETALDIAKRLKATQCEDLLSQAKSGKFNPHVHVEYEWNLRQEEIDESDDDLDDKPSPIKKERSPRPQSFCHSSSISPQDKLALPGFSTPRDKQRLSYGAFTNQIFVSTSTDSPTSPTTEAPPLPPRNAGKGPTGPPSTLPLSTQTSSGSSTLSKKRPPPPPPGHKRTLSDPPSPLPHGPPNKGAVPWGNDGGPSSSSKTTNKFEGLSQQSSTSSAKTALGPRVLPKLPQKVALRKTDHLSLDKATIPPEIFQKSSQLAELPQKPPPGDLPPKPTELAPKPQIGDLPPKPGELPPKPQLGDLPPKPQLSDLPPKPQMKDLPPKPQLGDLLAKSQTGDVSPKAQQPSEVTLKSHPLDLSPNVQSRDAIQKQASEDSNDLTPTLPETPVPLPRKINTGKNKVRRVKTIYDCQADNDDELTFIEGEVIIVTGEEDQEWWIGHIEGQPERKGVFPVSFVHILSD
UniProt Q9NQS1: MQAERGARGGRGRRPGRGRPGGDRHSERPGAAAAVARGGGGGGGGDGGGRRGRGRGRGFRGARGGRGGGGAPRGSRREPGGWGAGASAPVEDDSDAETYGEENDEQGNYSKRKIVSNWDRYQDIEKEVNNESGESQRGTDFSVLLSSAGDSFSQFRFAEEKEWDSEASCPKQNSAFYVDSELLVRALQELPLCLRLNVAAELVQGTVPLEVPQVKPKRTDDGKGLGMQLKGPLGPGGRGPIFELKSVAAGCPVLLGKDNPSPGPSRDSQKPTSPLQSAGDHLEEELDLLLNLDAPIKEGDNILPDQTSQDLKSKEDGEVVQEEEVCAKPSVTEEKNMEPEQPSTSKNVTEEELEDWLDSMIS

What follows are targets tested with CC[C@@H](C)Nc1cc(C(=O)N[C@H]2C[C@H]3CC[C@@H](C2)N3c2ccc(C(=O)C3CC3)cn2)c(C)cc1C(N)=O [XL888] (assay: phosphopeptide melting temperature shift (XL888 minus DMSO); higher = stabilised by drug treatment). Details: 100 µM; treatment time 2 h; layout: intact cells; SK-Mel 28.
Method: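 Phospho-TPP in intact SK-Mel 28 cells treated with 100 uM XL888 or DMSO for 2 h, heated at 10 temperatures (37-67 C) for 3 min, soluble fraction TMT10plex-labelled and TiO2 phospho-enriched. Melting curves were fitted per phosphopeptide; the value is the melting point difference (drug minus vehicle) in each of two biological replicates.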

| Target | phosphopeptide melting temperature shift [°C] |
| --- | --- |
| ABCF1 phosphosite_22 (phosphosite position: 22) (UniProt Q8NE71) | 0.364 |
| ABCF1 phosphosite_108 (phosphosite position: 108) (UniProt Q8NE71) | -0.903 |
| ACACA phosphosite_1259 (phosphosite position: 1259) (UniProt Q13085) | -0.282 |
| ACACA phosphosite_1263 (phosphosite position: 1263) (UniProt Q13085) | 0.196 |
| ACIN1 phosphosite_410 (phosphosite position: 410) (UniProt Q9UKV3) | -0.964 |
| ACSS2 phosphosite_267 (phosphosite position: 267) (UniProt Q9NR19) | -0.455 |
| ACTG1 phosphosite_233 (phosphosite position: 233) (UniProt P63261) | 0.604 |
| ACTG1 phosphosite_323 (phosphosite position: 323) (UniProt P63261) | 0.762 ± 0.26 |
| ACTL6A phosphosite_233 (phosphosite position: 233) (UniProt O96019) | 2.94 ± 0.82 |
| ACTN4 phosphosite_159 (phosphosite position: 159) (UniProt O43707) | -0.669 ± 0.66 |
| ACTN4 phosphosite_423 (phosphosite position: 423) (UniProt O43707) | 2.05 |
| ADNP phosphosite_953 (phosphosite position: 953) (UniProt Q9H2P0) | 3.06 ± 2.6 |
| ADNP phosphosite_955 (phosphosite position: 955) (UniProt Q9H2P0) | 2.1 ± 1.2 |
| AFF4 phosphosite_487 (phosphosite position: 487) (UniProt Q9UHB7) | 0.839 |
| AHCTF1 phosphosite_1513 (phosphosite position: 1513) (UniProt Q8WYP5) | 1.54 |
| AHNAK phosphosite_93 (phosphosite position: 93) (UniProt Q09666) | 0.355 |
| AHNAK phosphosite_511 (phosphosite position: 511) (UniProt Q09666) | -4.45 |
| AHNAK phosphosite_1452 (phosphosite position: 1452) (UniProt Q09666) | 0.597 |
| AHNAK phosphosite_4766 (phosphosite position: 4766) (UniProt Q09666) | 0.892 |
| AKAP10 phosphosite_187 (phosphosite position: 187) (UniProt O43572) | 2.08 |
| AKAP11 phosphosite_1337 (phosphosite position: 1337) (UniProt Q9UKA4) | 0.362 ± 0.2 |
| AKT1S1 phosphosite_88 (phosphosite position: 88) (UniProt Q96B36) | -2.52 |
| AKT1S1 phosphosite_92 (phosphosite position: 92) (UniProt Q96B36) | -2.52 |
| AKT2 phosphosite_451 (phosphosite position: 451) (UniProt P31751) | 0.703 |

Given field by field: entries from further up.
ACACA phosphosite_1263 (phosphosite position: 1263) (UniProt Q13085)
  phosphopeptide melting temperature shift [°C]: 0.196
ACIN1 phosphosite_410 (phosphosite position: 410) (UniProt Q9UKV3)
  phosphopeptide melting temperature shift [°C]: -0.964
ACSS2 phosphosite_267 (phosphosite position: 267) (UniProt Q9NR19)
  phosphopeptide melting temperature shift [°C]: -0.455
ACTG1 phosphosite_233 (phosphosite position: 233) (UniProt P63261)
  phosphopeptide melting temperature shift [°C]: 0.604

The results go on.

| Target | phosphopeptide melting temperature shift [°C] |
| --- | --- |
| ALDOA phosphosite_39 (phosphosite position: 39) (UniProt P04075) | 0.425 |
| ALDOA phosphosite_46 (phosphosite position: 46) (UniProt P04075) | 2.46 |
| ALS2 phosphosite_483 (phosphosite position: 483) (UniProt Q96Q42) | 0.225 ± 0.76 |
| ALS2 phosphosite_492 (phosphosite position: 492) (UniProt Q96Q42) | 0.559 ± 0.29 |
| ALS2 phosphosite_1464 (phosphosite position: 1464) (UniProt Q96Q42) | 2.48 |
| ANAPC4 phosphosite_777 (phosphosite position: 777) (UniProt Q9UJX5) | 0.52 ± 2.2 |
| ANAPC4 phosphosite_779 (phosphosite position: 779) (UniProt Q9UJX5) | 0.52 ± 2.2 |
| ANKS1A phosphosite_647 (phosphosite position: 647) (UniProt Q92625) | 1.84 ± 0.65 |
| ANKS1A phosphosite_663 (phosphosite position: 663) (UniProt Q92625) | 2.67 |
| ANXA2 phosphosite_12 (phosphosite position: 12) (UniProt P07355) | 0.0773 ± 0.33 |
| ARFGAP2 phosphosite_146 (phosphosite position: 146) (UniProt Q8N6H7) | 2.54 ± 0.61 |
| ARFGEF1 phosphosite_52 (phosphosite position: 52) (UniProt Q9Y6D6) | 1.07 |
| ARFGEF1 phosphosite_1555 (phosphosite position: 1555) (UniProt Q9Y6D6) | 1.68 |
| ARFGEF2 phosphosite_218 (phosphosite position: 218) (UniProt Q9Y6D5) | 0.92 |
| ARFGEF2 phosphosite_349 (phosphosite position: 349) (UniProt Q9Y6D5) | 1.48 ± 1 |
| ARFGEF2 phosphosite_614 (phosphosite position: 614) (UniProt Q9Y6D5) | -0.457 ± 0.86 |
| ARFGEF2 phosphosite_1511 (phosphosite position: 1511) (UniProt Q9Y6D5) | 1.68 ± 1.2 |
| ARFGEF2 phosphosite_1514 (phosphosite position: 1514) (UniProt Q9Y6D5) | 0.528 ± 0.68 |
| ARHGAP21 phosphosite_1503 (phosphosite position: 1503) (UniProt Q5T5U3) | 2.72 |
| ARHGEF5 phosphosite_184 (phosphosite position: 184) (UniProt Q12774) | 0.221 |
| ARHGEF11 phosphosite_556 (phosphosite position: 556) (UniProt O15085) | -0.215 ± 0.99 |
| ARHGEF11 phosphosite_668 (phosphosite position: 668) (UniProt O15085) | 1.36 ± 0.23 |
| ARHGEF11 phosphosite_1292 (phosphosite position: 1292) (UniProt O15085) | 2.62 |
| ARHGEF11 phosphosite_1295 (phosphosite position: 1295) (UniProt O15085) | 3.3 |

| Target | phosphopeptide melting temperature shift [°C] |
| --- | --- |
| ARHGEF40 phosphosite_419 (phosphosite position: 419) (UniProt Q8TER5) | -0.371 ± 0.38 |
| ASAP1 phosphosite_837 (phosphosite position: 837) (UniProt Q9ULH1) | 2.02 |
| ASAP1 phosphosite_839 (phosphosite position: 839) (UniProt Q9ULH1) | 1.4 ± 1.9 |
| ASAP1 phosphosite_1027 (phosphosite position: 1027) (UniProt Q9ULH1) | -1.58 ± 0.59 |
| ASAP1 phosphosite_1128 (phosphosite position: 1128) (UniProt Q9ULH1) | 0.147 ± 0.36 |
| ASF1A phosphosite_166 (phosphosite position: 166) (UniProt Q9Y294) | 0.615 ± 0.45 |
| ATG2B phosphosite_497 (phosphosite position: 497) (UniProt Q96BY7) | 1.22 |
| ATG2B phosphosite_1579 (phosphosite position: 1579) (UniProt Q96BY7) | 4.43 |
| ATG2B phosphosite_1583 (phosphosite position: 1583) (UniProt Q96BY7) | 4.43 |
| ATG16L1 phosphosite_269 (phosphosite position: 269) (UniProt Q676U5) | 1.05 |
| ATM phosphosite_1881 (phosphosite position: 1881) (UniProt Q13315) | 0.808 |
| ATM phosphosite_1981 (phosphosite position: 1981) (UniProt Q13315) | -2.59 |
| AVEN phosphosite_94 (phosphosite position: 94) (UniProt Q9NQS1) | 2.32 |
| BCKDHA phosphosite_337 (phosphosite position: 337) (UniProt P12694) | -0.683 ± 1.8 |
| BCL9 phosphosite_104 (phosphosite position: 104) (UniProt O00512) | 1.68 |
| BCL9 phosphosite_917 (phosphosite position: 917) (UniProt O00512) | 0.272 ± 0.57 |
| BICD2 phosphosite_568 (phosphosite position: 568) (UniProt Q8TD16) | 0.759 ± 0.84 |
| BICD2 phosphosite_574 (phosphosite position: 574) (UniProt Q8TD16) | 2.74 |
| BIRC6 phosphosite_480 (phosphosite position: 480) (UniProt Q9NR09) | 0.98 ± 0.83 |
| BRD4 phosphosite_1117 (phosphosite position: 1117) (UniProt O60885) | -5.45 |
| BRD9 phosphosite_103 (phosphosite position: 103) (UniProt Q9H8M2) | 4.03 |
| BYSL phosphosite_98 (phosphosite position: 98) (UniProt Q13895) | 0.907 |
